# Library screening results

Mtb growth Cornell: 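Whole-cell assay for inhibitors of Mycobacterium tuberculosis growth, labelled Cornell in the record; the read-out is not stated. The concentration is filed as 10 mM, unlikely as a test dose, so the dose is not known. The record gives no direction; compounds strong in two other growth screens of this library score well above the rest, so higher reads as stronger inhibition. About 53,000 compounds were tested under these conditions; 1.7% (about 900) showed 50% or more at least once.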
Mtb heat-shock: 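Assay on Mycobacterium tuberculosis, filed only as a heat shock assay from Cornell; the read-out is not stated. The concentration is filed as 10 mM, unlikely as a test dose, so the dose is not known. The record gives no direction; compounds that gave an IC50 in retests scored well above the rest, so higher reads as stronger inhibition. Size under these conditions: about 69,000 compounds, about 930 of them at 50% or above in at least one test.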

Values are the deposited “Percent Effect”, in %.
The record does not define 0% and 100%; most values in the screen are far below 50% and negative numbers occur (in some assays of this library far below -100).
The compounds are a random part of those screened.
A dash means the value is not listed here; it may have been measured.

With CC(Cn1ccnc1)NC(=O)N(C)Cc1ccc2c(c1)OCO2 (stereo not drawn) the screen gave Mtb heat-shock: -5.426%.
With CCOc1cc(C(=O)N2CCCC2)cc2occc12 the screen gave Mtb growth Cornell: 17.1%; Mtb heat-shock: -30.38%.
With CCn1cc(CN2CCCCC2CCn2ccnc2C)cc1C#N (stereo not drawn) the screen gave Mtb growth Cornell: 2.571%; Mtb heat-shock: 2.029%.
With CCOCCOC(C)C(=O)Nc1ccc2c(ccn2CC)c1 (stereo not drawn) the screen gave Mtb heat-shock: -7.295%.
With CS(=O)(=O)CCCNC(=O)Nc1sc2ccccc2c1Cl the screen gave Mtb heat-shock: 26.49%.
With CC(c1cncs1)N(C)Cc1ccc(CCC(C)(C)O)cc1 (stereo not drawn) the screen gave Mtb heat-shock: -24.27%.
With CCc1nnsc1C(=O)NCc1nnc2n1CCCCC2 the screen gave Mtb growth Cornell: -30.05%; Mtb heat-shock: -3.556%.
With CCC(CNC1CCN(C(=O)N(C)C)CC1)Oc1ccccc1C (stereo not drawn) the screen gave Mtb growth Cornell: -15.51%; Mtb heat-shock: -6.808%.
With CCOc1ccc(SCCS(=O)(=O)CC)cc1 the screen gave Mtb growth Cornell: 17.22%; Mtb heat-shock: -4.357%.
With O=C1CC(c2ccncc2)C2(CCN(Cc3cccnc3)CC2)N1 (stereo not drawn) the screen gave Mtb growth Cornell: 14.74%; Mtb heat-shock: -18.43%.
With COc1ccccc1CN1CC(O)CN(S(=O)(=O)C(C)C)CC1=O (stereo not drawn) the screen gave Mtb growth Cornell: -24.14%; Mtb heat-shock: 61.24%.
With COCCNc1nc(N2CCOCC2)nc2nccnc12 the screen gave Mtb growth Cornell: 13.65%; Mtb heat-shock: -0.8869%.
With O=C(CC1CCc2ccccc21)N1CCC(O)(Cn2ccnc2)CC1 (stereo not drawn) the screen gave Mtb growth Cornell: 46.39%; Mtb heat-shock: -1.464%.
With CCc1nc(CN2CCCN(c3nccs3)CC2)no1 the screen gave Mtb growth Cornell: -35.81%; Mtb heat-shock: -1.801%.
With Cl.Cl.Cn1cnc2c(-c3cccnc3)nc(C3CCNCC3)cc21 the screen gave Mtb growth Cornell: -36.54%; Mtb heat-shock: -14.43%.
With Cc1ccc(C(=O)NC(CN2CCCC2=O)c2ccccc2)cn1 (stereo not drawn) the screen gave Mtb heat-shock: 7.995%.
With COc1c(CNCc2ccnc(N3CCCC3)c2)c(C)nn1C the screen gave Mtb heat-shock: -1.354%.
With CN(Cc1ccncc1)C(=O)c1ccc2c(c1O)OC(C)(C)C2 the screen gave Mtb growth Cornell: 12.57%; Mtb heat-shock: 7.227%.
With CN(CCC#N)C(=O)CCOc1cccc(F)c1 the screen gave Mtb growth Cornell: -9.706%; Mtb heat-shock: -13.15%.
With [H][C@@]12CCN(C(=O)c3cccn3C)C[C@@]1([H])O[C@H](c1ccncn1)C2 the screen gave Mtb growth Cornell: 14.13%; Mtb heat-shock: 4.539%.
With Cc1ccc(CN2CCOC3(CCN(CC4CCOC4)CC3)C2)cc1.O=C(O)C(F)(F)F.O=C(O)C(F)(F)F (stereo not drawn) the screen gave Mtb growth Cornell: -0.5113%; Mtb heat-shock: 35.27%.
With [H][C@@]12CCCO[C@]1([H])[C@@H](OCCCn1cccn1)CN2c1nnc(C)s1 the screen gave Mtb growth Cornell: -1.046%; Mtb heat-shock: -19.66%.
With CCOc1cccc(C(=O)NCCC(=O)Nc2ccncc2)c1 the screen gave Mtb growth Cornell: -33.98%; Mtb heat-shock: -22.21%.
With CCCn1ccnc1CN1CCCC1c1ccccn1 (stereo not drawn) the screen gave Mtb growth Cornell: 16.53%; Mtb heat-shock: -1.532%.
With CCC(=O)N1CCN(c2ncnc3cc4c(cc23)OCCO4)CC1 the screen gave Mtb heat-shock: 3.225%.
With COCC(O)CNC(=O)Nc1c(F)cc(F)cc1-c1ccccc1 (stereo not drawn) the screen gave Mtb growth Cornell: 5.782%; Mtb heat-shock: 5.755%.
With O=C1CC(NCc2ncc[nH]2)CN1CCc1cccc(Cl)c1 (stereo not drawn) the screen gave Mtb growth Cornell: 0.5615%; Mtb heat-shock: 14%.
With CC(C)c1noc(-c2ccc(-n3cnc(C(=O)O)c3)nc2)n1 the screen gave Mtb growth Cornell: 17.02%; Mtb heat-shock: -3.75%.
With [H][C@]12CN(C(=O)c3cnccc3C)CC[C@@]1(O)CCN(C1CCCCC1)C2 the screen gave Mtb growth Cornell: 14.7%; Mtb heat-shock: 12.65%.
With Cc1cc(C(F)(F)F)n2nc(C3CCN(S(=O)(=O)N(C)C)CC3)cc2n1 the screen gave Mtb growth Cornell: -8.533%; Mtb heat-shock: 6.188%.
With OCCn1ncc2c1CN(CC1CCOc3ccccc3C1)C2 (stereo not drawn) the screen gave Mtb heat-shock: 3.28%.
With Cc1oc(-c2cccs2)nc1C(=O)N1CCCC1Cn1cccn1 (stereo not drawn) the screen gave Mtb growth Cornell: -5.258%; Mtb heat-shock: -0.1053%.
With C[C@@H]1CN(C(=O)c2cc(COc3ccc4c(c3)OCO4)[nH]n2)C[C@H](C)O1 the screen gave Mtb growth Cornell: 3.14%; Mtb heat-shock: -27.54%.
With CC(C)(C)n1ncc2c1CCCC2NCc1ccc2c(c1)CCO2 (stereo not drawn) the screen gave Mtb heat-shock: -15.73%.
With [H][C@]12CC[C@]([H])(CN(C(=O)CCc3n[nH]c(C)n3)C1)N(CC=C(C)C)C2 the screen gave Mtb growth Cornell: 6.553%; Mtb heat-shock: -1.975%.
With c1n[nH]cc1CCCN1CCC(OC2CCCCC2)CC1 the screen gave Mtb heat-shock: -16.59%.
With O=C1CCc2cc(C(=O)NCc3ccc(Cl)s3)ccc2N1 the screen gave Mtb growth Cornell: 22.86%; Mtb heat-shock: -37.27%.

Repeated from the top, 3 entries:

compound	Mtb growth Cornell	Mtb heat-shock
CC(Cn1ccnc1)NC(=O)N(C)Cc1ccc2c(c1)OCO2 (stereo not drawn)	-	-5.426%
CCOc1cc(C(=O)N2CCCC2)cc2occc12	17.1%	-30.38%
CCn1cc(CN2CCCCC2CCn2ccnc2C)cc1C#N (stereo not drawn)	2.571%	2.029%

The values are deposited in ChEMBL (CHEMBL3988442, “University of Dundee, Small-Polar-MMV Screening Library” (2021)).